Experimental data taken from the supplement of paper PMC10727501.
The other results are listed elsewhere or left out. Repeats in this data set agree poorly, so a single value says little.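 Free-swimming zebrafish larvae were scored for O-bend response probability to dark flashes (naive: first five; training: remaining flashes of four 60-flash blocks; test: later 60-flash block) and for turning toward alternating leftward/rightward LED motion (OMR). Six treated larvae were compared with sixty 0.1% DMSO controls; |SSMD|≥2 defined a hit.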

What was measured:
Conditions in all cases: 10 µM; pre-incubation: 30-90 min
[1] = test system: Danio rerio larvae (5 dpf, TLF); test: OMR-Perf (SSMD vs DMSO vehicle); higher = higher than vehicle (e.g. higher dark-flash O-bend response probability, or better optomotor performance)
[2] = test system: Danio rerio larvae (5 dpf, TLF); test: Prob-Test (SSMD vs DMSO vehicle); higher = higher than vehicle (e.g. higher dark-flash O-bend response probability, or better optomotor performance)
[3] = test system: Danio rerio larvae (5 dpf, TLF); test: Prob-Naive (SSMD vs DMSO vehicle); higher = higher than vehicle (e.g. higher dark-flash O-bend response probability, or better optomotor performance)
[4] = test system: Danio rerio larvae (5 dpf, TLF); test: Prob-Train (SSMD vs DMSO vehicle); higher = higher than vehicle (e.g. higher dark-flash O-bend response probability, or better optomotor performance)

| SMILES | OMR-Perf [1] | Prob-Test [2] | Prob-Naive [3] | Prob-Train [4] |
| --- | --- | --- | --- | --- |
| CC[C@H](C)C(=O)O[C@@H]1C[C@H](O)C=C2C=C[C@H](C)[C@@H](CC[C@@H](O)C[C@@H](O)CC(=O)[O-])[C@H]21.[Na+] [Pravastatin sodium] | -0.122 | -0.187 | 0.584 | 0.249 |
| CCN(c1cc(-c2ccc(CN3CCOCC3)cc2)cc(C(=O)NCc2c(C)cc(C)[nH]c2=O)c1C)C1CCOCC1 | -0.11 | -0.0479 | 0.146 | -0.119 |
| Cc1cc(CN2CCN(c3c(Br)cnc4[nH]c(-c5ccc(N6CCN(C)CC6)cc5)nc34)CC2)no1 | -0.108 | 0.0214 | -0.397 | -0.534 |
| CC(O)C(=O)O.CCOc1ccc2nc3cc(N)ccc3c(N)c2c1.O [Ethacridine lactate monohydrate] | 0.255 | -0.618 | -0.294 | -0.122 |
| Cc1cc(C#N)cc(C)c1Oc1nc(Nc2ccc(C#N)cc2)nc(N)c1Br [Etravirine (TMC125)] | 0.0656 | 0.0378 | -1.38 | -0.8 |
| Cn1c(=O)cc(N2CCC[C@@H](N)C2)n(Cc2ccccc2C#N)c1=O [Alogliptin] | -0.116 | 0.542 | 0.232 | 0.978 |
| OC[C@@H]1O[C@H](O[C@]2(CCl)O[C@H](CCl)[C@@H](O)[C@H]2O)[C@H](O)[C@@H](O)[C@H]1Cl [Sucralose] | -0.495 | 0.0444 | -0.252 | -0.537 |
| NC(=O)Cc1cccc(C(=O)c2ccccc2)c1N [Nepafenac] | -0.521 | -0.148 | 0.147 | -0.441 |
| COS(=O)(=O)[O-].C[N+]1(C)CCC(=C(c2ccccc2)c2ccccc2)CC1 [Diphemanil Methylsulfate] | -0.178 | 0.191 | 0 | 0.386 |
| COc1ccc([C@@H]2CC(=O)c3c(O)cc(O[C@@H]4O[C@H](CO[C@@H]5O[C@@H](C)[C@H](O)[C@H](O)[C@H]5O)[C@@H](O)[C@H](O)[C@H]4O)cc3O2)cc1O [Hesperidin] | -0.476 | 0.0163 | -0.534 | -0.046 |
| COc1cc(OC)c2c(=O)[nH]c(-c3cc(C)c(OCCO)c(C)c3)nc2c1 | -0.979 | -0.229 | 0 | -0.161 |
| CCC(C)(Oc1ccc(C2(c3ccc(OC(C)(CC)C(=O)O)cc3)CCCCC2)cc1)C(=O)O (stereo unspecified) [Clinofibrate] | -0.204 | 0.332 | -0.0932 | -0.147 |
| CCOC(=O)OC(C)OC1=C(C(=O)Nc2ccccn2)N(C)S(=O)(=O)c2ccccc21 (stereo unspecified) [Ampiroxicam] | -0.425 | -0.195 | -0.106 | -0.352 |
| O=[N+]([O-])c1cn2c(n1)OC[C@@H](OCc1ccc(OC(F)(F)F)cc1)C2 | 0.341 | 0.464 | 0.292 | -0.206 |
| O=C(/C=C/N1C[C@H]2C[C@@H]1CN2c1ccccn1)c1ccccc1O | 0.168 | -1.21 | -0.519 | -0.905 |
| COc1cc2c(cc1OC)CN(CCc1ccc(NC(=O)c3cc(OC)c(OC)cc3NC(=O)c3cnc4ccccc4c3)cc1)CC2 [Tariquidar] | 0.868 | 0.00375 | 0.0934 | 0.228 |
| Cl.Nc1ccn([C@@H]2O[C@@H](CO)[C@@H](O)C2(F)F)c(=O)n1 [Gemcitabine HCl (Gemzar)] | -0.41 | 0.237 | 0.124 | -0.233 |
| C[C@@H]1COc2c(N3CCN(C)CC3)c(F)cc3c(=O)c(C(=O)O)cn1c23 [Levofloxacin] | -0.227 | 0.159 | 0.478 | 0.57 |
| O=S(=O)([O-])CCSSCCS(=O)(=O)[O-].[Na+].[Na+] [Dimesna] | -0.596 | 0.512 | -0.138 | 0.00914 |
| CN1CCc2c(c3ccccc3n2Cc2ccc(C(=O)NO)cc2)C1.Cl [Tubastatin A HCl] | -0.211 | -0.125 | 0.446 | 0.402 |
| COc1ccc2cc([C@H](C)C(=O)[O-])ccc2c1.[Na+] [Naproxen] | -0.285 | -0.493 | -0.862 | -1.35 |
| COc1cc2c(cc1Cc1cccc(Cl)c1F)c(=O)c(C(=O)O)cn2[C@H](CO)C(C)C [Elvitegravir (GS-9137, JTK-303)] | -0.477 | 0.0909 | -0.0101 | -0.0651 |
| CC(=O)N[C@@H]1[C@H]([C@H](O)[C@H](O)CO)OC(C(=O)O)=C[C@@H]1NC(=N)N [Zanamivir] | -0.182 | -0.23 | 0 | 0.465 |
| Nc1nccc(Oc2ccc(NC(=O)c3c[nH]cc(-c4ccc(F)cc4)c3=O)cc2F)c1Cl | -0.454 | -0.66 | 0.289 | 0.016 |
| NC(=O)N/N=C/c1ccc([N+](=O)[O-])o1 [Nitrofural] | 0.0352 | -0.091 | 0.493 | 0.167 |

Record cards, as listed above. Order of values: OMR-Perf [1]	Prob-Test [2]	Prob-Naive [3]	Prob-Train [4]
O=S(=O)([O-])CCSSCCS(=O)(=O)[O-].[Na+].[Na+] [Dimesna] is listed as -0.596	0.512	-0.138	0.00914
Cc1cc(CN2CCN(c3c(Br)cnc4[nH]c(-c5ccc(N6CCN(C)CC6)cc5)nc34)CC2)no1 is listed as -0.108	0.0214	-0.397	-0.534
OC[C@@H]1O[C@H](O[C@]2(CCl)O[C@H](CCl)[C@@H](O)[C@H]2O)[C@H](O)[C@@H](O)[C@H]1Cl [Sucralose] is listed as -0.495	0.0444	-0.252	-0.537

Next records:

| SMILES | OMR-Perf [1] | Prob-Test [2] | Prob-Naive [3] | Prob-Train [4] |
| --- | --- | --- | --- | --- |
| CNC(=O)CN1CCC(Oc2cc3c(Nc4cccc(Cl)c4F)ncnc3cc2OC)CC1 [AZD8931 (Sapitinib)] | 0.071 | 0.126 | -0.476 | 0.479 |
| Nc1nc2c(ncn2COCCO)c(=O)[nH]1 [Aciclovir] | 0.0884 | -0.337 | -0.253 | -0.00626 |
| C#CCN[C@H]1CCc2ccccc21.CS(=O)(=O)O [Rasagiline Mesylate] | -0.227 | -0.327 | -0.639 | -0.398 |
| CN(C)CCCN1c2ccccc2Sc2ccc(C(F)(F)F)cc21.Cl [Triflupromazine HCl] | -0.623 | -1.37 | -0.392 | -1.49 |
| NS(=O)(=O)c1cc2c(cc1C(F)(F)F)NC(Cc1ccccc1)NS2(=O)=O (stereo unspecified) [Bendroflumethiazide] | -0.234 | 0.0694 | 0.163 | -0.493 |
| Cl.O=C1OC(CN2CCOCC2)CN1/N=C/c1ccc([N+](=O)[O-])o1 (stereo unspecified) [Furaltadone HCl] | -0.375 | 0.0552 | 0.105 | 0.124 |
| Cc1ccc(NC(=O)C2(c3ccc4c(c3)OC(F)(F)O4)CC2)nc1-c1cccc(C(=O)O)c1 [VX-809 (Lumacaftor)] | -0.31 | -0.721 | -0.95 | -1.28 |
| O=C(O)c1cc(=O)c2ccccc2o1 [Chromocarb] | -0.047 | -0.358 | -0.481 | -0.472 |
| CC[C@@H]1OC(=O)[C@@H](C)[C@@H](O[C@H]2C[C@@](C)(OC)[C@@H](O)[C@H](C)O2)[C@@H](C)[C@@H](O[C@@H]2O[C@@H](C)C[C@H](N(C)C)[C@H]2O)[C@@](C)(O)C[C@@H](C)[C@@H]2N[C@@H](COCCOC)OC([C@@H]2C)[C@]1(C)O [Dirithromycin] | -0.519 | -0.583 | 0.0902 | -0.515 |
| CCC(=O)N1CCN(c2ccc(-n3c(=O)ccc4cnc5ccc(-c6cnc7ccccc7c6)cc5c43)cc2C(F)(F)F)CC1 [Torin 1] | -0.0788 | -0.62 | -0.274 | -0.354 |
| C=CCn1c(=O)c2cnc(Nc3ccc(N4CCN(C)CC4)cc3)nc2n1-c1cccc(C(C)(C)O)n1 | 0.734 | 0.241 | 0.214 | -0.277 |
| CC(C)[N+]1(C)C2CCC1CC(OC(=O)C(CO)c1ccccc1)C2.[Br-] (stereo unspecified) [Ipratropium Bromide] | 0.152 | -0.0189 | -0.385 | -0.227 |
| CC(C)N(CCCNC(=O)Nc1ccc(C(C)(C)C)cc1)C[C@H]1O[C@@H](n2cc(Br)c3c(N)ncnc32)[C@H](O)[C@@H]1O | 0.608 | -0.171 | 0.245 | -0.09 |
| CCN(CC)CCNC(=O)c1c(C)[nH]c(/C=C2\C(=O)Nc3ccc(F)cc32)c1C.O=C(O)C[C@H](O)C(=O)O [Sunitinib Malate] | -0.0969 | 0.0354 | -0.159 | -0.381 |
| CC(C)[C@H]1C(=O)N[C@@H](CCCNC(=N)N)C(=O)NCC(=O)N[C@@H](CC(=O)O)C(=O)N[C@H](Cc2ccccc2)C(=O)N1C [Cilengitide] | -0.29 | -0.352 | -0.144 | -0.306 |
| CCO.N#CC(=C(/N)Sc1ccccc1N)/C(C#N)=C(\N)Sc1ccccc1N | 0.0753 | -0.873 | 0.255 | -1.64 |
| CC1(C)O[C@H]2CC(=O)OC[C@]23[C@H]2CC[C@@]4(C)[C@H](c5ccoc5)OC(=O)[C@@H]5O[C@]54[C@@]2(C)C(=O)C[C@@H]13 [Limonin] | -0.326 | -0.124 | 0.146 | -0.125 |
| CN1CCN2c3ncccc3Cc3ccccc3C2C1 (stereo unspecified) [Mirtazapine] | -0.644 | -0.282 | 0.375 | -0.336 |
| COc1cc(Cc2cnc(N)nc2N)cc(OC)c1OC [Trimethoprim] | -0.302 | 0.15 | 0 | 0.18 |
| C=C1C[C@@]2(O)O[C@@]3(C[C@H]2C(C)C)[C@H](C)CC[C@@H]13 [Curcumol] | 0.295 | -0.816 | -0.673 | -1.05 |
| Cc1ccc(C(=O)Nc2ccc(CN3CCN(C)CC3)c(C(F)(F)F)c2)cc1C#Cc1cnc2cccnn12 | -0.84 | -0.185 | -0.0595 | -0.212 |
| COc1cc2c(Nc3ccc(Br)cc3F)ncnc2cc1OCC1CCN(C)CC1 [Vandetanib (ZD6474)] | 0.652 | 0.16 | -0.0527 | 0.0419 |
| CC(C)NCC(O)COc1ccc(CCOCC2CC2)cc1 (stereo unspecified) [Betaxolol] | 0.274 | -0.14 | -0.171 | -0.113 |
| CCOc1ccc(Cc2cc([C@@H]3O[C@H](CO)[C@@H](O)[C@H](O)[C@@H]3O)ccc2Cl)cc1 [Dapagliflozin] | 0.0842 | 0.415 | 0.357 | 0.32 |
